Experimental data as given in PMC7384856.
Results are given in words; binding and its absence hold for the method and conditions named. In cells and extracts the contact can be indirect. Some entries that bind do so weakly or less than the wild type.

Biological target: T1, Cup (D. melanogaster (endogenous in embryos)) (UniProt Q9VMA3)
T1 sequence: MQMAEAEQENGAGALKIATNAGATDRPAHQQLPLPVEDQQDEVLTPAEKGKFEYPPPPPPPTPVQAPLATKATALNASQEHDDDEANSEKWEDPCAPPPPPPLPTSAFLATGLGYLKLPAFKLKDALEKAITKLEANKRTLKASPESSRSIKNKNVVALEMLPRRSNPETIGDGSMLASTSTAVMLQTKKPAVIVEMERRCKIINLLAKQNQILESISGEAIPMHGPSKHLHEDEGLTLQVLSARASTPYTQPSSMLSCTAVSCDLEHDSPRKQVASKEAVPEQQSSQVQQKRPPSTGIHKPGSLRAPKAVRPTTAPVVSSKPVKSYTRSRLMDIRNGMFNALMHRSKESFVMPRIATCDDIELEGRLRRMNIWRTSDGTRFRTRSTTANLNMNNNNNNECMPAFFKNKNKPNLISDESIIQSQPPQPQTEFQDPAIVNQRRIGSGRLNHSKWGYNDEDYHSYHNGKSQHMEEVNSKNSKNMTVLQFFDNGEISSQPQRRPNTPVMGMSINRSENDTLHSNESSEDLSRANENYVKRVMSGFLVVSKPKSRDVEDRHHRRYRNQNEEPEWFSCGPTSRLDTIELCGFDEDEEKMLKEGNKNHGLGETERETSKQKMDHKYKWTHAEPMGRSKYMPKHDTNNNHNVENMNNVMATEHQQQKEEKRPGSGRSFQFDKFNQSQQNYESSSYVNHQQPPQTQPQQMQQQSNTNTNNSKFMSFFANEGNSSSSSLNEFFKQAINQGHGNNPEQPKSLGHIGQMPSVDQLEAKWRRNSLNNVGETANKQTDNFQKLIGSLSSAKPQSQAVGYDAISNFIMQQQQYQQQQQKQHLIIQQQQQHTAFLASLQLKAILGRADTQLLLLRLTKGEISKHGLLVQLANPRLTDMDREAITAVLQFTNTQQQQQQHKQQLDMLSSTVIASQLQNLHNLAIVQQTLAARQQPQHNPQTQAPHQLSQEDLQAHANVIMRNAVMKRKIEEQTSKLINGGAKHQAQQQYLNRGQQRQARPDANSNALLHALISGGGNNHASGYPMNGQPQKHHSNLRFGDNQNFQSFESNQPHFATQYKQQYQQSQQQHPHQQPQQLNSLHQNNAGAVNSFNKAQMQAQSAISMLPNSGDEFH
Assay: co-IP; 1-2 hr embryo lysates diluted to 1.0 mg/ml in lysis buffer B (150 mM KCl, 20 mM HEPES-KOH pH 7.4, 1 mM MgCl2, 1 mM DTT), α-GFP, α-Cup or IgG, protein G beads, 4°C; western blot with α-RanBPM; embryos wild-type, png^50, or with mCherry, RanBPM, Muskelin, Souji or Kdo knocked down

- binding: binds
B1: RanBPM (protein, UniProt Q4Z8K6 1-962)
chain: MENVEEAPPLSSESNSNSNNSSASSSSHQLSQSGAMGAEIAPSTSRSHSHSPTPSPPVPASSHDQPHPDHPSPPLNASETEARENSPHDHSPTPTFHQTAPPPTTSSTAPQRDEREQQQQQEAPPLQQDQQENSPAQDQELHPLLDQQNQEYPAVHQDQQAEQNQELHHIEGLIRHRESQNPEEHPPQASLENRETLGREDTNQEPDEPQVRDPEIEPEAEPPPPLLLEDLDEQDSGSQDLNEQQPPLIIDANAIAETIDANAVERIDDYEDDDEEVDEEEEVVEDRVDRAGEVASVSGAQRLHSVAVLPRYSSASRAPRSSNNNNNNISNHNNNNNNSNSNSLSRRTRHFYSNNGSHFSNDMFPSHNPRSSTQTSSPRVGGRRHHSTPAASSNSPQHQGVDPLRLLYPNVNESETPLPRCWSPHDKCLSIGLSQNNLRVTYKGVGKQHSDAASVRTAYPIPSSCGLYYFEVRIISKGRNGYMGIGLTAQQFRMNRLPGWDKQSYGYHGDDGNSFSSSGNGQTYGPTFTTGDVIGCCVNFVNNTCFYTKNGVDLGIAFRDLPTKLYPTVGLQTPGEEVDANFGQEPFKFDKIVDMMKEMRSNVLRKIDRYPHLLETPENLMNRLVSTYLVHNAFSKTAEAFNGYTNQTFNEDLASIKTRQKIIKLILTGKMSQAIEHTLRSFPGLLENNKNLWFALKCRQFIEMINGADIENVNNKVTATTQTMPTNQTSVIQSTKTFKHSKSGSGNGNVNINQTQQQNNTAIPAVIKPQGGDRPDIKNMLVDDNSNKCVEHDSNSMDVEMEPCQSHSNGGDSSSNGNASAVRNSLDAIDEEMDVDVSPSSRNCGRVIEKILEFGKELSSMGQQLEKENLMTEEERQMLEDAFSLIAYSNPWSSPLGWLLCPSRRESVSTTLNSAILESLNFERRPPLEYLVAHASELIKVIGQHSLGEDAFITIDDVFPQN
